Measured values reported in article PMC3648463, “Common Interactions between S100A4 and S100A9 Defined by a Novel Chemical Probe” (PLoS ONE, 2013).
No constants are given. Whether binding was seen depends on the method and setting.

Sequences of proteins named here, by UniProt entry; tags and fusion partners are left off.
UniProt P06702: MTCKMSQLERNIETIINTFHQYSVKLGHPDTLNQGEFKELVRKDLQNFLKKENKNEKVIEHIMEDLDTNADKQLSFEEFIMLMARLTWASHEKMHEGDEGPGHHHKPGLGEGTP
UniProt P23297: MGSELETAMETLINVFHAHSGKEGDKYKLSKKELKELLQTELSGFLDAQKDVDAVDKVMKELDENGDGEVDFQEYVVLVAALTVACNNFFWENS

Target: recombinant human S100A9 (human) (UniProt P06702)
Assay: SPR; S100A1, A4, A7, A9 and A13 (~1.3 µg/mL) injected (2 min at 30 µL/min) over immobilised S100A4 and S100A9 (~2.5 kRU); 1 mM Ca++ and 20 µM Zn++; responses at late association phase; both purified

binding: no binding (tested: ~1.3 µg/mL)
Substance: recombinant human S100A1 (from UniProt P23297 1-94)
